Drawing on patent publication US20210309709A1, this text covers binding for 11 molecules.

Protein sequences, listed by entry. Tags and fused reporters are not part of them. Residues count along the entry.
UniProt P06213, residues 28-1382: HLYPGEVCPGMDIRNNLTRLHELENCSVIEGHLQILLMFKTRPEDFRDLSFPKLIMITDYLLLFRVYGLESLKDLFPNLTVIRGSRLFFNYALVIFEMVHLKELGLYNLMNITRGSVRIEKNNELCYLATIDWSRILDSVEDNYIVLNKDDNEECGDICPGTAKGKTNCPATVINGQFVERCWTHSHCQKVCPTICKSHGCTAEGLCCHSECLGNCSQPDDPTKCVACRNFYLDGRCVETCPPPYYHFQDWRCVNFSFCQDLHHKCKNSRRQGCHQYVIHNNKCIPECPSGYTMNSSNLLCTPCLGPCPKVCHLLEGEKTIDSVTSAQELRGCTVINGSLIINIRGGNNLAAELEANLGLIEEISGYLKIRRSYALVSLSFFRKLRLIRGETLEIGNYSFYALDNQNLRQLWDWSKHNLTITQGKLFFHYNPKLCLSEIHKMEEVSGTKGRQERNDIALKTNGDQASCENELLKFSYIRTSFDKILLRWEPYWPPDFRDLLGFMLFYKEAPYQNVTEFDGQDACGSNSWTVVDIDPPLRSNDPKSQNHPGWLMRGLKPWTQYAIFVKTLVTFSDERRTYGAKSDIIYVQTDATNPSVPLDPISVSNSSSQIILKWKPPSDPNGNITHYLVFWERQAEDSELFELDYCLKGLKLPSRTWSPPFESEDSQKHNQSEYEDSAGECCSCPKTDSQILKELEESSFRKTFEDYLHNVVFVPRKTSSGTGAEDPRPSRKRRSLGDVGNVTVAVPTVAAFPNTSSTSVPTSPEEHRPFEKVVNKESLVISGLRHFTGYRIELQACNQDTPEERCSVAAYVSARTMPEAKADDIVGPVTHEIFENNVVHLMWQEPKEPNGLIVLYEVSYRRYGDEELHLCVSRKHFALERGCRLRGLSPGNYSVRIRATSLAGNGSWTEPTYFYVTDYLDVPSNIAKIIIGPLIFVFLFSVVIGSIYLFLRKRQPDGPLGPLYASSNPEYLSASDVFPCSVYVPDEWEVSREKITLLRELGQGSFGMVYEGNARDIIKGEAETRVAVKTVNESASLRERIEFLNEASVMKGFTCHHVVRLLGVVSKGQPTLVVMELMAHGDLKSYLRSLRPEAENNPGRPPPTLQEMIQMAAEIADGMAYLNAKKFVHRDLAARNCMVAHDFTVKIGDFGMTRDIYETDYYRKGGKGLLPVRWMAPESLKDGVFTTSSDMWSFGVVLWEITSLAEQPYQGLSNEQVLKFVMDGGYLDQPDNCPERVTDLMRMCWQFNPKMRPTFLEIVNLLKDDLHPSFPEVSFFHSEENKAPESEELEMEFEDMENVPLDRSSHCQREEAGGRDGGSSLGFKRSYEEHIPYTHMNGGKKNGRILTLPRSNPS

First the molecules themselves.
B1: insulin-Fc fusion protein of SEQ ID NO: 56 (Fc fusion)
chain: FVNQHLCGSHLVEALELVCGERGFHYGGGGGGSGGGGGIVEQCCTSTCSLDQLENYCNHGGGGQGGGGQGGGGQGGGGGDCPKCPAPEMLGGPSVFIFPPKPKDTLLIARTPEVTCVVVDLDPEDPEVQISWFVDGKQMQTAKTQPREEQFNGTYRVVSVLPIGHQDWLKGKQFTCKVNNKALPSPIERTISKARGQAHQPSVYVLPPSREELSKNTVSLTCLIKDFFPPDIDVEWQSNGQQEPESKYRTTPPQLDEDGSYFLYSKLSVDKSRWQRGDTFICAVMHEALHNHYTQESLSHSPG
B2: insulin-Fc fusion protein of SEQ ID NO: 28 (Fc fusion)
chain: B1 chain with H59G
B3: insulin-Fc fusion protein of SEQ ID NO: 53 (Fc fusion)
chain: FVNQHLCGSHLVEALALVCGERGFFYTDPTGGGPRRGIVEQCCTSICSLYQLENYCGGGGGQGGGGQGGGGQGGGGGDCPKCPAPEMLGGPSVFIFPPKPKDTLLIARTPEVTCVVVDLDPEDPEVQISWFVDGKQMQTAKTQPREEQFSGTYRVVSVLPIGHQDWLKGKQFTCKVNNKALPSPIERTISKARGQAHQPSVYVLPPSREELSKNTVSLTCLIKDFFPPDIDVEWQSNGQQEPESKYRTTPPQLDEDGSYFLYSKLSVDKSRWQRGDTFICAVMHEALHNHYTQESLSHSPG
B4: insulin-Fc fusion protein of SEQ ID NO: 44 (Fc fusion)
chain: FVNQHLCGSHLVQALYLVCGERGFFYTDPTGGGPRRGIVEQCCTSICSLYQLENYCGGGGAGGGGDCPKCPAPEMLGGPSVFIFPPKPKDTLLIARTPEVTCVVVDLDPEDPEVQISWFVDGKQMQTAKTQPREEQFSGTYRVVSVLPIGHQDWLKGKQFTCKVNNKALPSPIERTISKARGQAHQPSVYVLPPSREELSKNTVSLTCLIKDFFPPDIDVEWQSNGQQEPESKYRTTPPQLDEDGSYFLYSKLSVDKSRWQRGDTFICAVMHEALHNHYTQESLSHSPG
B5: insulin-Fc fusion protein of SEQ ID NO: 54 (Fc fusion)
chain: B4 chain with Q13E, Y16A, D28Q, P29G, T30G, P34G, R35G, R36G
B6: insulin-Fc fusion protein of SEQ ID NO: 45 (Fc fusion)
chain: B4 chain with H10E, Q13E, Y16A
B7: insulin-Fc fusion protein of SEQ ID NO: 47 (Fc fusion)
chain: B4 chain with Q13E, Y16A, F25Y
B8: insulin-Fc fusion protein of SEQ ID NO: 52 (Fc fusion)
chain: B4 chain with Q13E, Y16A, D28P, P29G, T30G, P34G, R35G, R36G
B9: insulin-Fc fusion protein of SEQ ID NO: 26 (Fc fusion)
chain: FVNQHLCGSHLVEALELVCGERGFHYGGGGGGSGGGGGIVEQCCTSTCSLDQLENYCGGGGGQGGGGQGGGGQGGGGGDCPKCPAPEMLGGPSVFIFPPKPKDTLLIARTPEVTCVVVDLDPEDPEVQISWFVDGKQMQTAKTQPREEQFNGTYRVVSVLPIGHQDWLKGKQFTCKVNNKALPSPIERTISKARGQAHQPSVYVLPPSREELSKNTVSLTCLIKDFFPPDIDVEWQSNGQQEPESKYRTTPPQLDEDGSYFLYSKLSVDKSRWQRGDTFICAVMHEALHNHYTQESLSHSPG
modifications: native N-glycosylation site cNg-NB151
B10: insulin-Fc fusion protein of SEQ ID NO: 57 (Fc fusion)
chain: B9 chain with H25F
B11: insulin-Fc fusion protein of SEQ ID NO: 50 (Fc fusion)
chain: FVNQHLCGSHLVEALALVCGERGFFYTDPTGGGGGGSGGGGGIVEQCCTSICSLYQLENYCGGGGAGGGGDCPKCPAPEMLGGPSVFIFPPKPKDTLLIARTPEVTCVVVDLDPEDPEVQISWFVDGKQMQTAKTQPREEQFSGTYRVVSVLPIGHQDWLKGKQFTCKVNNKALPSPIERTISKARGQAHQPSVYVLPPSREELSKNTVSLTCLIKDFFPPDIDVEWQSNGQQEPESKYRTTPPQLDEDGSYFLYSKLSVDKSRWQRGDTFICAVMHEALHNHYTQESLSHSPG

Changes are numbered by the printed parent chain. Results are given in words; binding and its absence hold for the method and conditions named. Some binding calls cover weakened binding; strength is not graded here. Sequences can lack the tags named with a protein.

The assay addresses human insulin receptor (IR) on human IM-9 cells (human) (UniProt P06213). Kind of assay: competition flow cytometry, IM-9 cells, 4 C, vs biotinylated RHI. (In general: A flow cytometer gives signals particle by particle.)
B1: the binding entry is recorded as “binds”.

For the molecule B2, the binding result is on record as “binds”.

For B3, the binding result was “binds”.

With B4, the binding result is listed as “binds”.

In the case of B5, the binding entry is “binds”.

For B6, the binding entry is recorded as “binds”.

Turning to B7, the binding result is reported as “binds”.

On to B8, for which the binding result is “binds”.

For B9, the binding entry was “binds”.

Regarding B10, the binding result was “binds”.

For the molecule B11, the binding result was “binds”.
